Measured values published in patent publication US20250313572A1, “MACROCYCLIC MCL-1 INHIBITORS AND METHODS OF USE” (AbbVie Inc., priority 2017, published 2025).

Sequences of proteins named here, by UniProt entry; tags and fusion partners are left off.
UniProt Q07820, whole entry: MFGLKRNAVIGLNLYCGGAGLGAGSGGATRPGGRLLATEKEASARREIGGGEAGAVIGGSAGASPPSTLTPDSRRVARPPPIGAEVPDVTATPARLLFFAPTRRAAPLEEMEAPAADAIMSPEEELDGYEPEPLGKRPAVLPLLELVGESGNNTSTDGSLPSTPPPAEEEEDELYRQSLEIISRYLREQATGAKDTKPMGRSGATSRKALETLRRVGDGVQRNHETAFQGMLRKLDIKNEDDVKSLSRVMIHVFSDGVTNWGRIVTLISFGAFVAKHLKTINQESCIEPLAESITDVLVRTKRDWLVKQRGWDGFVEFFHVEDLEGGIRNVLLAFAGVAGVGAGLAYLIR

Tests used:
[1] = tested on: AMO-1 human multiple myeloma tumor cell line; experiment: AMO-1 cell viability assay (CellTiter-Glo, 24 hours); type: cell-based; conditions: read-out: AMO-1 Viability IC50 (μM, 10% FBS), 24 hours of compound treatment
From the text: (§1) The in vitro efficacy of exemplary MCL-1 inhibitors can be determined in cell-based killing assays using a variety of cell lines and mouse tumor models. For example, their activity on cell viability can be assessed on a panel of cultured tumorigenic and non-tumorigenic cell lines, as well as primary mouse or human cell populations. MCL-1 inhibitory activity of exemplary MCL-1 inhibitors was confirmed in a cell viability assay with AMO-1 and NCI-H929 human multiple myeloma tumor cell lines.
(§2) In one exemplary set of conditions, NCI-H929 or AMO-1 (ATCC, Manassas, VA) were plated 4,000 cells per well in 384-well tissue culture plates (Corning, Corning, NY) in a total volume of 25 μL RPMI tissue culture medium supplemented with 10% fetal bovine serum (Sigma-Aldrich, St. Louis, MO) and treated with a 3-fold serial dilution of the compounds of interest with a Labcyte Echo from a final concentration of 10 µM to 0.0005 μM. Each concentration was tested in duplicate at least 3 independent times. A luminescent signal proportional to the number of viable cells following 24 hours of compound treatment was determined using the CellTiter-Glo® Luminescent Cell Viability Assay according to the manufacturer's recommendations (Promega Corp., Madison, WI). The plates were read in a Perkin Elmer Envision using a Luminescence protocol. […]

[2] = tested on: NCI-H929 human multiple myeloma tumor cell line; experiment: NCI-H929 cell viability assay (CellTiter-Glo, 24 hours); conditions: read-out: H929 Viability IC50 (μM, 10% FBS), 24 hours of compound treatment
From the text: as §1, §2

[3] = target: GST-MCL-1 (Homo sapiens, UniProt Q07820); experiment: TR-FRET MCL-1 binding assay (competition with probe F-Bak)
Method: Tb-anti-GST antibody was purchased from Invitrogen (Catalog No. PV4216).
For the assay, an acoustic dispenser was used to prepare dilution series from 10 mM test compounds in 100% DMSO and directly transfer 160 nL into low volume 384-well assay plates. 8 μL of a protein/probe/antibody mix was then added to each well resulting in final concentrations listed below: • Test compound: 11 three-fold dilutions beginning at 25 μM
The samples were then mixed on a shaker for 1 minute and incubated for an additional 2 hours at room temperature. For each assay plate, a probe/antibody and protein/antibody/probe mixture were included as a negative and a positive control, respectively. Fluorescence was measured on the Envision (Perkin Elmer) using a 340/35 nm excitation filter and 520/525 (F-Bak) and 495/510 nm (Tb-labeled anti-his antibody) emission filters. Dissociation constants (Ki) were determined using Wang's equation (Wang, 1995, FEBS Lett. 360:111-114). The TR-FRET assay can be performed in the presence of varying concentrations of human serum (HS) or fetal bovine serum (FBS). Compounds were tested both without HS and in the presence of 10% HS.

COCCOCCOC[C@]1(F)CC[C@H](c2nccc(COc3ccc4cc3C[C@H](C(=O)O)Oc3ncnc5sc(-c6ccc(F)cc6)c(c35)-c3c(C)c(Cl)c(c(Cl)c3C)O[C@H](CN3CCN(C)CC3)CO4)n2)CC1
IC50 [1]: 0.00399 µM
IC50 [2]: 0.0028 µM
Ki ([3]; read-out: MCL-1 Binding Ki (nM, 10% HS), in the presence of 10% HS (human serum)): 49.1 nM
pKi ([3]; read-out: MCL-1 Binding Ki, without HS): 7.30

pKi: −log10 of the molar value. Like-named read-outs stand apart in the source and are kept apart here. The match of structure and compound is tentative.
